Reference: article doi:10.1101/2020.06.27.175497
No constants are given. Whether binding was seen depends on the method and setting.

Sequences of proteins named here, by UniProt entry; tags and fusion partners are left off. A change or cut given only in a name is not applied to a line headed by its entry. A line that says so, or that is headed by a name, gives the form on record, which may keep a tag or linker.
CARD8^CARD D511K (P446-L537, with A452C) (Q9Y2G2-5, form named): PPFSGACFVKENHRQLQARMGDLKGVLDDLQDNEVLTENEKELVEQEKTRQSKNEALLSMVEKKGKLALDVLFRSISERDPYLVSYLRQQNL

Target: CARD8^CARD D511K (P446-L537, with A452C) (human) (UniProt Q9Y2G2)
Experiment: negative-stain EM of filaments formed in vitro

Question: How did the binding turn out when “CARD8^CARD D511K (P446-L537, with A452C) (from UniProt Q9Y2G2-5 446-537) (domain or fragment)” was run?
Answer: Its binding is “no binding”.
